The values that follow come from paper PMC11199634.

Chains of the proteins cited; added tags and fusions are not shown.
UniProt Q9NYF8: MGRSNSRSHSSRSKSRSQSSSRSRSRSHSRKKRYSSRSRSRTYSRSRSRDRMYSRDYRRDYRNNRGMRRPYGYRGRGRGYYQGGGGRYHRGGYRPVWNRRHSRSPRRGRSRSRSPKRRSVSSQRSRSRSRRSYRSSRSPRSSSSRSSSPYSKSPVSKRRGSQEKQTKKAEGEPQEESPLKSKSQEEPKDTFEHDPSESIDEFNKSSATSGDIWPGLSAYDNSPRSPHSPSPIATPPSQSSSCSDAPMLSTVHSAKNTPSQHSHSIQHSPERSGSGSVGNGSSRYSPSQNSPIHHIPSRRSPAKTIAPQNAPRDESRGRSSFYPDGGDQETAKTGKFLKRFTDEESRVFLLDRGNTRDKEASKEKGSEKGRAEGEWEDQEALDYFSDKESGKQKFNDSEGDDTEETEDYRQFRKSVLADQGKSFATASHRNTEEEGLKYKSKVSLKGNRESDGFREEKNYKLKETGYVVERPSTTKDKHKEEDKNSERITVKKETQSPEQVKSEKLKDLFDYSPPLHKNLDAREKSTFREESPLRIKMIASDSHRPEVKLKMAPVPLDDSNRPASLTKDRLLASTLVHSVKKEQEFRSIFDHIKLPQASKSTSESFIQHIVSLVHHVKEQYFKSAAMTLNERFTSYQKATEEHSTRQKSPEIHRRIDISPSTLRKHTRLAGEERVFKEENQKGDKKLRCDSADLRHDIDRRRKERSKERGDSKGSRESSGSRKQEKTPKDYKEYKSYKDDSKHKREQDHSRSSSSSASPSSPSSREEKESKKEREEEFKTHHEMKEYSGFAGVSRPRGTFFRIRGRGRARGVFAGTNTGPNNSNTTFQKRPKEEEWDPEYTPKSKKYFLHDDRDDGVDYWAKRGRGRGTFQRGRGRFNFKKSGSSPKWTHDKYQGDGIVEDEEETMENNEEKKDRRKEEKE

One assay has as its target EGFP-SDS22-KR7A (human) (UniProt Q15435). Kind of assay: co-IP; ectopically expressed SDS22-WT, SDS22-KR7A or a PP1–SDS22 fusion, pulldown (Supplementary Fig. 4h); tag and cells not given.
A further assay has as its target Strep-I3-DE4R (human) (UniProt O60927). The assay is described as follows: co-IP; Strep-traps of transiently expressed Strep-I3 variants with EGFP-SDS22 variants; immunoblot. In general terms: In western blotting, separated proteins are transferred to a membrane and probed.
The target in another assay is T1, EGFP-SDS22-WT (human) (UniProt Q15435).
T1 sequence: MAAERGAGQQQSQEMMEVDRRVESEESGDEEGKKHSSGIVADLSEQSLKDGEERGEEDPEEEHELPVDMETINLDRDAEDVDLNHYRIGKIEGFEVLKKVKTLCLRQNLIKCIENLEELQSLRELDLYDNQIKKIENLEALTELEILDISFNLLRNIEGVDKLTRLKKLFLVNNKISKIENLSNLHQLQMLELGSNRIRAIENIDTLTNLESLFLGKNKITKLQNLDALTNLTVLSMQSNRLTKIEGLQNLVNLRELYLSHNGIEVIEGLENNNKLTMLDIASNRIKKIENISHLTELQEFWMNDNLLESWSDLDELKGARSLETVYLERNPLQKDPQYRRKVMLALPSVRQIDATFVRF
The assay is described as follows: co-IP; EGFP-trap (anti-EGFP nanobodies on agarose, 2 h, 4 °C) of transiently expressed EGFP fusions from HEK293T lysates (20 mM Tris pH 7.9, 0.3 M NaCl, 0.5% Triton X-100); endogenous partners by immunoblot.

Another assay deals with T2, EGFP-I3-(1–84) (human) (UniProt O60927).
T2 sequence: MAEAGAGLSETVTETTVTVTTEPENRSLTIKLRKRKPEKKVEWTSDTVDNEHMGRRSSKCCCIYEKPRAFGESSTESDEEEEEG
The assay is described as above.

The target of the next assay is T3, EGFP-I3-(1–70) (human) (UniProt O60927).
T3 sequence: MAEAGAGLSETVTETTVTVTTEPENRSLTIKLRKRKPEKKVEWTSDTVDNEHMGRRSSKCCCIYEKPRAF
Described as above.

A further assay deals with T4, EGFP-SDS22-W302* (human) (UniProt Q15435).
T4 sequence: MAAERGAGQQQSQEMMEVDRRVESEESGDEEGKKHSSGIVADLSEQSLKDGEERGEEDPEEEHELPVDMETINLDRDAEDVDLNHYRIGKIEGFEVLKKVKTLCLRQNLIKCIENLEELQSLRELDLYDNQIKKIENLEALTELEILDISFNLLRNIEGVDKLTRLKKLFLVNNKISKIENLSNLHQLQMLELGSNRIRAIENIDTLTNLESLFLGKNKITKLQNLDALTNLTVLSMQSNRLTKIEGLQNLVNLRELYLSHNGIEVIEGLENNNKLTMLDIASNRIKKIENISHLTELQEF
The description is as above.

In the next assay the target is T5, EGFP-I3-WT (human) (UniProt O60927).
T5 sequence: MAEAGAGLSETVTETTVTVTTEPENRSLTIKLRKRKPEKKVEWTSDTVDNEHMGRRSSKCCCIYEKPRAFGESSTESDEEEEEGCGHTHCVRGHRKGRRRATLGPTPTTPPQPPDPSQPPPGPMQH
The assay is described as above.

Results are given in words; binding and its absence hold for the method and conditions named. In cells and extracts the contact can be indirect. For some of these results: Binding can be weak; no strength is given. For some of these results: Sequences can lack the tags named with a protein.

Regarding “BCLAF1 (endogenous, HEK293T) (from UniProt Q9NYF8 1-920)”, the binding result with EGFP-SDS22-KR7A (human) is given as “no binding”.

Take EGFP-SDS22-KR7E (from UniProt Q15435): the binding result with Strep-I3-DE4R (human) is listed as “binds”.

For “PP1 (endogenous, HEK293T) (human (endogenous in HEK293T)) (enzyme)”, the binding entry with EGFP-SDS22-WT (human) is given as “binds”; in the assay with EGFP-I3-(1–84) (human), “binds”; with EGFP-I3-(1–70) (human) it was “binds”; with EGFP-SDS22-W302* (human) it was “no binding”; with EGFP-I3-WT (human), “binds”.
